Measured data: PubChem BioAssay AID1259308 (NCATS, 2017)

Test: 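Genes whose loss raises luciferase production in HEK293 cells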 (primary screen)
Cell system: human HEK293 embryonic kidney cells stably expressing firefly luciferase (HEK-CMV-Luc2-Hygro)
Reagents: single siRNA against human genes, 0.8 pmol siRNA per well
Duration: 72 h
Read-out: 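Luciferase light (ONE-Glo) measured on one replicate plate set and viability (CellTiter-Glo) on the other, scaled to a negative control siRNA, with robust z-scores and luciferase per cell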
Direction: total luciferase, z-score: higher = more reporter protein produced
Rule for the call: 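Active when the median/MAD z-score for overall luciferase is greater than 3; a gene was taken forward for validation with new siRNAs if at least two of its three siRNAs passed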
Meaning of the calls: active = raised luciferase; inactive = no rise
The whole screen tested about 59,000 reagents; this is an unselected part. About 1,510 of all reagents (2.6%) count as active. 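Calls use total luciferase alone and ignore viability, so some active siRNAs may act by altering cell number.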 Reagents against one gene are numbered here. Further read-outs or replicates are left out here. Reagent sequences are not shown.

gene symbol | siRNA no. | total luciferase, z-score | activity call
CAPN5 (calpain 5) | 1 | 0.689 | inactive
CAPN5 (calpain 5) | 2 | -1.05 | inactive
CAPN5 (calpain 5) | 3 | 2.04 | inactive
TMEM242 (transmembrane protein 242) | 1 | -0.79 | inactive
TMEM242 (transmembrane protein 242) | 2 | 0.144 | inactive
TMEM242 (transmembrane protein 242) | 3 | -0.35 | inactive
FOXI1 (forkhead box I1) | 1 | -1.05 | inactive
FOXI1 (forkhead box I1) | 2 | -0.11 | inactive
FOXI1 (forkhead box I1) | 3 | 0.116 | inactive
SYDE2 (synapse defective Rho GTPase homolog 2) | 1 | 0.391 | inactive
SYDE2 (synapse defective Rho GTPase homolog 2) | 2 | 0.544 | inactive
SYDE2 (synapse defective Rho GTPase homolog 2) | 3 | -1.5 | inactive
ZNF566-AS1 (ZNF566 antisense RNA 1) | 1 | 1.39 | inactive
ZNF566-AS1 (ZNF566 antisense RNA 1) | 2 | -0.658 | inactive
ZNF566-AS1 (ZNF566 antisense RNA 1) | 3 | 0.0931 | inactive
CCDC80 (coiled-coil domain containing 80) | 1 | -0.619 | inactive
CCDC80 (coiled-coil domain containing 80) | 2 | 0.279 | inactive
CCDC80 (coiled-coil domain containing 80) | 3 | 0.372 | inactive

4 entries already listed, arranged by “total luciferase, z-score”, high to low.
gene symbol | siRNA no. | total luciferase, z-score | activity call
ZNF566-AS1 (ZNF566 antisense RNA 1) | 1 | 1.39 | inactive
SYDE2 (synapse defective Rho GTPase homolog 2) | 2 | 0.544 | inactive
ZNF566-AS1 (ZNF566 antisense RNA 1) | 2 | -0.658 | inactive
SYDE2 (synapse defective Rho GTPase homolog 2) | 3 | -1.5 | inactive

Further reagents follow.
gene symbol | siRNA no. | total luciferase, z-score | activity call
FANCD2 (FA complementation group D2) | 1 | 1.44 | inactive
FANCD2 (FA complementation group D2) | 2 | -1.4 | inactive
FANCD2 (FA complementation group D2) | 3 | -0.397 | inactive
TMEM67 (transmembrane protein 67) | 1 | -0.191 | inactive
TMEM67 (transmembrane protein 67) | 2 | -0.756 | inactive
TMEM67 (transmembrane protein 67) | 3 | -0.965 | inactive
ZNF791 (zinc finger protein 791) | 1 | -0.287 | inactive
ZNF791 (zinc finger protein 791) | 2 | 3.81 | active
ZNF791 (zinc finger protein 791) | 3 | -0.043 | inactive
TTC21B (tetratricopeptide repeat domain 21B) | 1 | -0.258 | inactive
TTC21B (tetratricopeptide repeat domain 21B) | 2 | 0.138 | inactive
TTC21B (tetratricopeptide repeat domain 21B) | 3 | 0.894 | inactive
SETMAR (SET and mariner transposase domain methyltransferase) | 1 | -0.68 | inactive
SETMAR (SET and mariner transposase domain methyltransferase) | 2 | -2.09 | inactive
SETMAR (SET and mariner transposase domain methyltransferase) | 3 | 0.095 | inactive
PLPPR5 (phospholipid phosphatase related 5) | 1 | -0.808 | inactive
PLPPR5 (phospholipid phosphatase related 5) | 2 | 0.439 | inactive
PLPPR5 (phospholipid phosphatase related 5) | 3 | 1.04 | inactive
TMIGD2 (transmembrane and immunoglobulin domain containing 2) | 1 | -0.0821 | inactive
TMIGD2 (transmembrane and immunoglobulin domain containing 2) | 2 | -0.0209 | inactive
TMIGD2 (transmembrane and immunoglobulin domain containing 2) | 3 | 2.03 | inactive
